Consider one sequence from patent publication US20120141382.

The exact form of at least one protein or probe is not confirmed.

Assay in all cases: binding assay
For one data set, the target named is eGFP (UniProt P42212). Conditions: CITED WO 2007/147149; roughly equivalent affinity to GFP; purified recombinant protein.
The target of data set [1] is Green fluorescent protein (GFP) (UniProt P42212). Conditions: CITED WO 2007/147149; inhibits GFP fluorescence; purified recombinant protein; protein details: Millipore.
The target of the next data set is eYFP (UniProt P42212). Conditions: CITED WO 2007/147149; roughly equivalent affinity to GFP; enhances fluorescence; purified recombinant protein.
The target in another data set is eCFP (UniProt P42212). Conditions: CITED WO 2007/147149; roughly equivalent affinity to GFP; enhances fluorescence; purified recombinant protein.

One may read the Kd as the constant that tells how readily two partners part at equilibrium. For the sequence “GCGUGAGACGUCUUGAUGAAAUCCGGCUCGGCAAUGGUUCGUGGCGAAUUGGGUGGGGAAAGUCCUUAAAAGAGGGCCACCACAGAAGCUUGUGGAGUUAACAGCAA [AptGFP-AP3]”, the binding result with eGFP, with eYFP and with eCFP was “binds” in each case. Also, in data set [1], the dissociation constant Kd amounted to 14.4 nM.
